For at least one compound, name, drawing or mass did not settle the structure.
Experiments:
[1] = system: DIO male Sprague-Dawley rats; assay: Chronic s.c. dosing, body weight and food intake in diet-induced obese (DIO) rats; type: in vivo; settings: for weight loss: 0.2 mg/kg s.c. twice daily
Method: (§1) However, it is not known whether DPP-IV inhibition in conjunction with glucagon-like peptide (GLP)-1 administration would influence body weight.
(§2) Materials and methods: Normal-weight and DIO male Sprague-Dawley rats were used for acute and chronic dosing experiments, respectively. All rats were stratified to treatment groups according to individual body weight and whole-body fat mass. Linagliptin+GLP-1 combination treatment was evaluated in both acute and chronic treatment settings and compared with monotherapy and vehicle controls. […] For comparison, DIO rats were exposed to 28 days of liraglutide monotherapy. All drugs were administered twice daily subcutaneously (s.c.). […] In comparison, chronic liraglutide (0.2 mg/kg) treatment evoked a long-lasting hypophagic response with a weight loss of −10.8±0.5% and 12.2±0.6% at day 14 and 28, respectively.

[2] = system: normal-weight male Sprague-Dawley rats; assay: Acute s.c. dosing, nocturnal food intake in normal-weight rats; type: in vivo; settings: linagliptin+GLP-1 combination, liraglutide 0.2 mg/kg
Method: as §1, §2

CCCCCCCCCCCCCCCC(=O)N[C@@H](CCC(=O)NCCCC[C@H](NC(=O)[C@H](C)NC(=O)[C@H](C)NC(=O)[C@H](CCC(N)=O)NC(=O)CNC(=O)[C@H](CCC(=O)O)NC(=O)[C@H](CC(C)C)NC(=O)[C@H](Cc1ccc(O)cc1)NC(=O)[C@H](CO)NC(=O)[C@H](CO)NC(=O)[C@@H](NC(=O)[C@H](CC(=O)O)NC(=O)[C@H](CO)NC(=O)[C@@H](NC(=O)[C@H](Cc1ccccc1)NC(=O)[C@@H](NC(=O)CNC(=O)[C@H](CCC(=O)O)NC(=O)[C@H](C)NC(=O)[C@@H](N)Cc1cnc[nH]1)[C@@H](C)O)[C@@H](C)O)C(C)C)C(=O)N[C@@H](CCC(=O)O)C(=O)N[C@@H](Cc1ccccc1)C(=O)N[C@H](C(=O)N[C@@H](C)C(=O)N[C@@H](Cc1c[nH]c2ccccc12)C(=O)N[C@@H](CC(C)C)C(=O)N[C@H](C(=O)N[C@@H](CCCNC(=N)N)C(=O)NCC(=O)N[C@@H](CCCNC(=N)N)C(=O)NCC(=O)O)C(C)C)[C@@H](C)CC)C(=O)O [liraglutide]
weight loss ([1]; day 14): −10.8±0.5%
weight loss ([1]; day 28): 12.2±0.6%
abdominal fat deposits ([1]; chronic s.c. treatment): marked reduction
duration of robust hypophagic response [2]: 18 h
